Source: publication doi:10.1101/410803
Results are given in words; binding and its absence hold for the method and conditions named. Binding seen in cells or lysates may run through a third protein. Some entries that bind do so weakly or less than the wild type. For part of these data: Sequences can lack the tags named with a protein.

T1: FLAG-tagged A1CF (APOBEC1 Complementation Factor) (human) (UniProt Q9NQ94)
T1 sequence: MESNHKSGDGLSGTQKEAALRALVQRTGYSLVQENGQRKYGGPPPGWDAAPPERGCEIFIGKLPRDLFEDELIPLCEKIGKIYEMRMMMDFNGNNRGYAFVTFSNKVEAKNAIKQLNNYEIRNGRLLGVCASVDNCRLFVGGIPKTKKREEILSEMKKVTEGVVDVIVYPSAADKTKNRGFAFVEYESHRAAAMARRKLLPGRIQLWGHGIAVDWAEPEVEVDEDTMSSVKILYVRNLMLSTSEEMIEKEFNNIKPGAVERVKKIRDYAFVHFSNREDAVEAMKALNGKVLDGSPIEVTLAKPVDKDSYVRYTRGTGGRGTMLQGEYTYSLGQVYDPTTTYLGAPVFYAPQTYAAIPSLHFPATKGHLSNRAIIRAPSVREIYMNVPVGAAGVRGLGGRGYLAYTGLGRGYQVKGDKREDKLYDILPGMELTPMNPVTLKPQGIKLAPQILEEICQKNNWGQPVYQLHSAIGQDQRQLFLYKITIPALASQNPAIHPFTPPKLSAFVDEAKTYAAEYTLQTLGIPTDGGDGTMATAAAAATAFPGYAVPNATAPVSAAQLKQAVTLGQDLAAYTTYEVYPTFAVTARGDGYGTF

T2: FLAG-tagged APOBEC1 (wild type) (rat) (UniProt P38483)
T2 sequence: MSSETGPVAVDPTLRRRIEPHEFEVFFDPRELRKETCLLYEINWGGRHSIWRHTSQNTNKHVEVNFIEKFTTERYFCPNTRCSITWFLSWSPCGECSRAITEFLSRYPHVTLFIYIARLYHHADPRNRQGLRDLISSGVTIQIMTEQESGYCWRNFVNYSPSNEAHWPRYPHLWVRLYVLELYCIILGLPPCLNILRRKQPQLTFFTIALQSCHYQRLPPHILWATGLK

T3: untagged rat APOBEC1 (wild type) (rat) (UniProt P38483)
T3 sequence: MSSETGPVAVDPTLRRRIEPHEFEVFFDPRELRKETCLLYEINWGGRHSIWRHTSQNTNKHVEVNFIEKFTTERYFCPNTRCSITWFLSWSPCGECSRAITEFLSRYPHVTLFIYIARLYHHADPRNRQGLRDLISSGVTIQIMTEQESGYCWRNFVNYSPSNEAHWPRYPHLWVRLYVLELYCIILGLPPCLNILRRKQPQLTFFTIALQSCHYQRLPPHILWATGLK


What was measured:
[1] = target: T1, FLAG-tagged A1CF (APOBEC1 Complementation Factor) (human); test: co-IP
[2] = target: T2, FLAG-tagged APOBEC1 (wild type) (rat); test: co-IP
[3] = target: T3, untagged rat APOBEC1 (wild type) (rat); test: cross-linking
[4] = target: rat APOBEC1 L173Q mutant (rat) (UniProt P38483); test: cross-linking
[5] = target: rat APOBEC1 G227A mutant (untagged) (rat) (UniProt P38483); test: cross-linking

binding [1]	Binder	other results
binds	rat APOBEC1 L173A/G227A double mutant (untagged) (enzyme, UniProt P38483 1-229) MSSETGPVAVDPTLRRRIEPHEFEVFFDPRELRKETCLLYEINWGGRHSIWRHTSQNTNKHVEVNFIEKFTTERYFCPNTRCSITWFLSWSPCGECSRAITEFLSRYPHVTLFIYIARLYHHADPRNRQGLRDLISSGVTIQIMTEQESGYCWRNFVNYSPSNEAHWPRYPHAWVRLYVLELYCIILGLPPCLNILRRKQPQLTFFTIALQSCHYQRLPPHILWATALK	binding [2]: binds; binding [3]: binds
binds	EGFP-APOBEC1 chimera (enzyme, UniProt P38483 1-229) MSSETGPVAVDPTLRRRIEPHEFEVFFDPRELRKETCLLYEINWGGRHSIWRHTSQNTNKHVEVNFIEKFTTERYFCPNTRCSITWFLSWSPCGECSRAITEFLSRYPHVTLFIYIARLYHHADPRNRQGLRDLISSGVTIQIMTEQESGYCWRNFVNYSPSNEAHWPRYPHLWVRLYVLELYCIILGLPPCLNILRRKQPQLTFFTIALQSCHYQRLPPHILWATGLK	
binds	untagged rat APOBEC1 (wild type) (enzyme, UniProt P38483 1-229) MSSETGPVAVDPTLRRRIEPHEFEVFFDPRELRKETCLLYEINWGGRHSIWRHTSQNTNKHVEVNFIEKFTTERYFCPNTRCSITWFLSWSPCGECSRAITEFLSRYPHVTLFIYIARLYHHADPRNRQGLRDLISSGVTIQIMTEQESGYCWRNFVNYSPSNEAHWPRYPHLWVRLYVLELYCIILGLPPCLNILRRKQPQLTFFTIALQSCHYQRLPPHILWATGLK	
binds	rat APOBEC1 L173A mutant (untagged) (enzyme, UniProt P38483 1-229) MSSETGPVAVDPTLRRRIEPHEFEVFFDPRELRKETCLLYEINWGGRHSIWRHTSQNTNKHVEVNFIEKFTTERYFCPNTRCSITWFLSWSPCGECSRAITEFLSRYPHVTLFIYIARLYHHADPRNRQGLRDLISSGVTIQIMTEQESGYCWRNFVNYSPSNEAHWPRYPHAWVRLYVLELYCIILGLPPCLNILRRKQPQLTFFTIALQSCHYQRLPPHILWATGLK	
	rat APOBEC1 L173Q mutant (enzyme, UniProt P38483 1-229) MSSETGPVAVDPTLRRRIEPHEFEVFFDPRELRKETCLLYEINWGGRHSIWRHTSQNTNKHVEVNFIEKFTTERYFCPNTRCSITWFLSWSPCGECSRAITEFLSRYPHVTLFIYIARLYHHADPRNRQGLRDLISSGVTIQIMTEQESGYCWRNFVNYSPSNEAHWPRYPHQWVRLYVLELYCIILGLPPCLNILRRKQPQLTFFTIALQSCHYQRLPPHILWATGLK	binding [4]: binds
binds	rat APOBEC1 G227A mutant (untagged) (enzyme, UniProt P38483 1-229) MSSETGPVAVDPTLRRRIEPHEFEVFFDPRELRKETCLLYEINWGGRHSIWRHTSQNTNKHVEVNFIEKFTTERYFCPNTRCSITWFLSWSPCGECSRAITEFLSRYPHVTLFIYIARLYHHADPRNRQGLRDLISSGVTIQIMTEQESGYCWRNFVNYSPSNEAHWPRYPHLWVRLYVLELYCIILGLPPCLNILRRKQPQLTFFTIALQSCHYQRLPPHILWATALK	binding [5]: binds
